PubChem BioAssay AID1508588 – Peter MacCallum Cancer Centre | 2020

- Screen: 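Which gene losses make BRAF-mutant melanoma cells more responsive to vemurafenib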 (primary screen)
- Cell system: human WM266.4 melanoma cells (BRAF V600 mutant)
- Reagent: siRNA pool against human genes, 40 nM
- Duration: 96 h from transfection to read-out
- Challenge: vemurafenib 300 nM (about IC25), added 48 h after transfection, for 48 h; comparison arm got DMSO vehicle only
- Measurement: 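Ratios to non-targeting siRNA for cell gain, counted as DAPI nuclei after minus before drug and averaged over two replicates, and for absorbance-read medium lactate per cell; both binned into fold-change classes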
- Scale: cell gain with vemurafenib: higher = more cell gain than with non-targeting siRNA; lactate per cell with vemurafenib: higher = more lactate made per cell
- Hit rule: 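a knock-down counts as enhancing when its fold-change classes with vehicle and with vemurafenib, taken together, show a stronger drug effect on cell gain or lactate per cell; exact class pairs not stated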
- Meaning of the calls: active = enhances vemurafenib effect; inactive = no enhancement seen
The whole screen tested about 18,000 reagents; this is a random part of them. 790 of them (4.4%) count as active. 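Calls rest on a combination of fold-change classes in drug and vehicle arms, not all shown here.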 A number with no mark means an inactive call. No sequences are given here.

cell gain with vemurafenib | lactate per cell with vemurafenib | target gene | PubChem SID
0.68 (active) | 0.15 | ATF6 | SID152147036
0.15 | 0.81 | LRRC40 | SID134320795
0.74 | 0.59 | RBBP5 | SID152154638
0.64 | 0.84 | KRTAP9-2 | SID135622550
0.21 | 0.29 | SAYSD1 | SID134324225
0 | 2.21 | CD59 | SID134310509
0.51 | 0.92 | ADAMTS2 | SID152154737
0.36 | 1.14 | TNF | SID134315046
0.39 | 0.77 | ORC3 | SID56478627
0.46 | 0.6 | FA2H | SID134314353
0.7 | 0.32 | SPATA31A7 | SID152156220
0.8 | 1.21 | MMP7 | SID152153388
0.27 | 1.07 | IL13RA1 | SID134312868
0.68 | 0.81 | RAX | SID152156644
0.32 | 1 | LGALS3BP | SID134312949
0.52 (active) | 0.38 | LZTS3 | SID134317661
1.74 | 0.66 | LRRC8B | SID134318193
0.79 | 0.92 | TRIM36 | SID135621296
0.83 | 0.77 | FBXL4 | SID134317784
0.62 | 0.9 | TTC39A | SID135624247
0.15 | 1.86 | POGLUT1 | SID134320144
0.84 | 0.9 | KIAA0753 | SID152148159
0.7 | 0.36 | KIFC3 | SID152148793
0.27 | 1.27 | CEP70 | SID152155109
0.81 | 0.64 | MCM9 | SID135623361
0.98 | 0.4 | FGF19 | SID135622583
0.93 | 1.04 | LRTM2 | SID135625556
0.17 | 1.7 | FBN2 | SID152151823
0.86 | 0.59 | PHGDH | SID152153003
0.5 (active) | 0.45 | PDZD2 | SID135621496
0.95 | 1.09 | OR4C15 | SID135625124
0.87 | 1.08 | SLC44A3 | SID135623052
0.49 | 1.99 | SLC22A5 | SID152150665
0.45 | 1.12 | AVPR1B | SID135620987
0.47 | 0.74 | TOB1 | SID134315059
-0.1 | 2.1 | MOB3A | SID134319346
0.69 | 0.94 | CCL5 | SID134312782
0.84 | 0.86 | CHI3L2 | SID135622353
0.91 | 0.56 | NME7 | SID56479121
0.39 | 0.73 | CMTM4 | SID134315244
0.46 | 2.25 | FUCA1 | SID152155378
-0.09 | 1.44 | RPL34 | SID152149467
0.72 | 1.02 | PTGS2 | SID134310519
0.64 | 1.08 | CFAP107 | SID134320826
-0.11 | 0.59 | SLC6A2 | SID152147732
0.38 | 0.3 | TTLL5 | SID135622943
0.31 | 0.93 | H3C7 | SID134317362
0.74 | 1.25 | FIBIN | SID134329412
0.63 | 0.88 | ILRUN | SID135623126
1.21 | 0.6 | PRAMEF2 | SID134318412
0.73 | 0.68 | GPM6A | SID134315096
0.11 | 1.36 | LSM14A | SID134318116
0.61 (active) | 0.44 | GKAP1 | SID134320151
0.75 | 0.66 | LMTK2 | SID152147902
0.69 | 0.24 | PTPRE | SID134313000
0.88 | 0.8 | N4BP2L1 | SID135622893
0.33 | 2.27 | TSEN15 | SID152148421
0.42 | 1.18 | DHX33 | SID134321155
0.57 | 1.18 | RECQL | SID134317815
0.94 | 0.54 | OR5D18 | SID152148369
0.31 (active) | 0.12 | C4orf33 | SID152155396
0.87 | 1.3 | CYRIB | SID135623432
0.96 | 1.15 | PRSS33 | SID135621088
0.44 | 1.48 | FAM163B | SID135625456
0.43 | 2.54 | SCO1 | SID135622220
0.21 | 0.56 | TMEM138 | SID135623954
0.2 | 0.22 | IFT54 | SID134319868
0.79 | 0.8 | CWF19L1 | SID152154755
0.22 | 0.39 | OR4E2 | SID134329800
0.89 | 0.72 | PPP2R2B | SID135620608
0.47 | 0.86 | DAO | SID152152618
0.72 | 1.1 | GLOD5 | SID135624999
0.68 | 0.6 | GIPC2 | SID134322824
0.97 | 0.56 | UBE4B | SID152155900
0.65 | 0.57 | FBXL14 | SID134319746
0.6 | 0.82 | ENOPH1 | SID152153038
0.38 | 1.33 | EXOC1 | SID152156578
0.12 (active) | 0.11 | CYP1A1 | SID135620887
0.5 | 1.7 | EIF2A | SID152155713
0.62 | 0.55 | SENP3 | SID152149668
0.64 | 0.59 | SHOX2 | SID152150828
0.51 (active) | 0.3 | PM20D2 | SID135624484
0.66 | 0.6 | B3GAT3 | SID152148805
0.62 | 1.52 | SUCLA2 | SID134313120

Records above with an active call:
cell gain with vemurafenib | lactate per cell with vemurafenib | target gene | PubChem SID
0.68 (active) | 0.15 | ATF6 | SID152147036
0.52 (active) | 0.38 | LZTS3 | SID134317661
0.5 (active) | 0.45 | PDZD2 | SID135621496
0.61 (active) | 0.44 | GKAP1 | SID134320151
0.31 (active) | 0.12 | C4orf33 | SID152155396
0.12 (active) | 0.11 | CYP1A1 | SID135620887
0.51 (active) | 0.3 | PM20D2 | SID135624484
